Reference: publication doi:10.1101/2022.03.18.484968
Like-named read-outs stand apart in the source and are kept apart here. These are yes or no findings as the source states them, for the method shown. In cells and extracts the contact can be indirect. Some entries that bind do so weakly or less than the wild type.

Protein sequences, listed by entry. Tags and fused reporters are not part of them.
UniProt P32121: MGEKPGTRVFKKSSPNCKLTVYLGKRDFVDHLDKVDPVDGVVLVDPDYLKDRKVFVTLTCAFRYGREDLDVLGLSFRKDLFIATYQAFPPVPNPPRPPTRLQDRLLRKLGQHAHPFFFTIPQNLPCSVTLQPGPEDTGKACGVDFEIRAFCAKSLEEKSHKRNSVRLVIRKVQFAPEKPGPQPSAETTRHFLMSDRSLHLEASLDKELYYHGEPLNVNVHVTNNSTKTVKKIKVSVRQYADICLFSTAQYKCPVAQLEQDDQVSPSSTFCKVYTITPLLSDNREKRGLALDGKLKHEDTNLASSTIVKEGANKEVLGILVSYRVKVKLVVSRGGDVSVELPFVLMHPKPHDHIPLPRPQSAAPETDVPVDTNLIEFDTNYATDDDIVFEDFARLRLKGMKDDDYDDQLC

Assays:
chemokine receptor CCR1 [1] = molecular target: T1, chemokine receptor CCR1 (UniProt P32246); experiment: co-IP
T1 sequence: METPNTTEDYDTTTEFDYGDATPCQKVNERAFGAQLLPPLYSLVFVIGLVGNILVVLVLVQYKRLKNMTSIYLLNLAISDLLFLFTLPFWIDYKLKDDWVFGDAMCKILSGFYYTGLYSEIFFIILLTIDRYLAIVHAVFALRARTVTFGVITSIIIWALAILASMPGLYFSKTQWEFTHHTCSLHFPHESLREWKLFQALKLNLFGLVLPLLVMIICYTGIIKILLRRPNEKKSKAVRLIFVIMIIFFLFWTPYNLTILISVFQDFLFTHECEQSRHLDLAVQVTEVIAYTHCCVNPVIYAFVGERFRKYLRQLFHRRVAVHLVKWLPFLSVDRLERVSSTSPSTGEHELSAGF

chemokine receptor CCR1 [2] = molecular target: T1, chemokine receptor CCR1; experiment: co-IP; remark: listed apart in the source

- binding (chemokine receptor CCR1 [1]): binds
- binding (chemokine receptor CCR1 [2]): binds weakly
Substance: β-arrestin 2 (from UniProt P32121 1-409)
